No constants are given. Whether binding was seen depends on the method and setting. Binding seen in cells or lysates may run through a third protein. Some entries that bind do so weakly or less than the wild type. For some assays here: Tags and fused reporters may be left off the sequences shown.
Legend:
[1] = molecular target: T1, HA-tagged VDAC2 (voltage-dependent anion-selective channel protein 2) (UniProt P45880); test: co-IP; HEK293T cells with exogenous TRIM21 and VDAC2; lysates precipitated with anti-FLAG or anti-HA antibody overnight at 4 °C, protein A/G magnetic beads, Western blot
T1 sequence: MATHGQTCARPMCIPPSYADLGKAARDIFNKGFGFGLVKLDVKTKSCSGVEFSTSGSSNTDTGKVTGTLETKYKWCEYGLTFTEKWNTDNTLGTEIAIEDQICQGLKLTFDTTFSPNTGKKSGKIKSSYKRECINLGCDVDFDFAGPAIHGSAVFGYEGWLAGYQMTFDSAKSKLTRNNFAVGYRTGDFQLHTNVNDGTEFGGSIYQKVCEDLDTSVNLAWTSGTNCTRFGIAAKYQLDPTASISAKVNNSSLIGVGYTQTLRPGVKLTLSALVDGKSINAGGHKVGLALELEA

Protein sequences, listed by entry. Tags and fused reporters are not part of them.
UniProt P19474: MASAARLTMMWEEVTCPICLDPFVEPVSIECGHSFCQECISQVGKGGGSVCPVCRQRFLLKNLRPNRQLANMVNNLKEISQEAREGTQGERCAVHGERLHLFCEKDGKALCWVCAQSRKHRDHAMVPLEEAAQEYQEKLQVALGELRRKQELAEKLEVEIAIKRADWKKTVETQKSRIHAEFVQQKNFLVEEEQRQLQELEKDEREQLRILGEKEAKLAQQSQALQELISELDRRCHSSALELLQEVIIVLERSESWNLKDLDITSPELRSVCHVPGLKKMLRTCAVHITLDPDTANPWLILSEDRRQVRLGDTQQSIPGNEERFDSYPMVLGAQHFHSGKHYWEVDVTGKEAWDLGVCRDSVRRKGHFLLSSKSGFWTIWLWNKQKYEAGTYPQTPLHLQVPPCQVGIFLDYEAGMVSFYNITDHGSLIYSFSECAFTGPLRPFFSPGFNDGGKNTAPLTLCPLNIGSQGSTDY
UniProt Q07812: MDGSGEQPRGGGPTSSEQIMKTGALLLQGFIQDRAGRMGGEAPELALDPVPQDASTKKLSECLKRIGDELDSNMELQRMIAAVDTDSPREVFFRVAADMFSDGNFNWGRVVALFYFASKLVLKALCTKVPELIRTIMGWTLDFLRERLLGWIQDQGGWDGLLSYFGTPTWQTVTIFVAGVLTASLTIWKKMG

[2] = molecular target: TRIM21 (construct not told; tests with IFI16, BAX, VDAC1 and VDAC3) (UniProt P19474); test: co-IP; TRIM21 and BAX; cells and antibodies not stated (Supplementary Fig. 3a)

binding [1]	binding [2]	Substance
binds		FLAG-tagged full-length TRIM21 (tripartite motif-containing 21) (from UniProt P19474 1-475)
	no binding	BAX (from UniProt Q07812 1-192)
